In PMC11772769, “Selective cargo and membrane recognition by SNX17 regulates its interaction with Retriever” (EMBO Reports, 2024):
Results are given in words; binding and its absence hold for the method and conditions named. Some binding calls cover weakened binding; strength is not graded here. For some assays here: Tags and fused reporters may be left off the sequences shown.

Amino acid sequences for entries named in this document (tags omitted). A change or cut given only in a name is not applied to a line headed by its entry. Chains listed by the source or under a name are the forms on record and can include a tag or linker.
GST-LRP1_(ICD-mut) (N4470A + Y4473A) (Q07954, form named): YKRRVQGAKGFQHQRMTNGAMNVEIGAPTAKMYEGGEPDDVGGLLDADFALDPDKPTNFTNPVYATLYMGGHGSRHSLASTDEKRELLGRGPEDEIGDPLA

Experiments:
[1] = molecular target: VPS35L (subunit co-expressed in insect cells) (UniProt Q7Z3J2); test: co-purification of co-expressed subunits; Retriever subunits with VPS35L constructs of different lengths co-expressed in insect cells and purified; SDS-PAGE of the purified complexes
[2] = molecular target: T1, MBP-SNX17 (full-length, wild-type) (UniProt Q15036); test: pull-down; both purified
T1 sequence: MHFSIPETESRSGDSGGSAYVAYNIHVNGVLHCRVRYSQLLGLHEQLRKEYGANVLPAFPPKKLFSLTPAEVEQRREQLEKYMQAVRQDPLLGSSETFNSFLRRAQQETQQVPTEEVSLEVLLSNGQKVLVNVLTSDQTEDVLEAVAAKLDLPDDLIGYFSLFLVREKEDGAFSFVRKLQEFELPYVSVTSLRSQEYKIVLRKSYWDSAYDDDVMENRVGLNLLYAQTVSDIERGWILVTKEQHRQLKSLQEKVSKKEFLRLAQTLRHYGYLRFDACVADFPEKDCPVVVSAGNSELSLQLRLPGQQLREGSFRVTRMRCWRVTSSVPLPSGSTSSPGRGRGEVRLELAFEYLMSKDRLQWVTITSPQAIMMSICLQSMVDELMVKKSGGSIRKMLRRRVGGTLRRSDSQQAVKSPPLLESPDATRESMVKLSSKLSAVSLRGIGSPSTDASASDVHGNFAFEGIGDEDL

binding [1] | binding [2] | Substance
binds | – | VPS26C (subunit co-expressed in insect cells) (from UniProt O14972 1-297)
– | no binding | GST-LRP1_(ICD-mut) (N4470A + Y4473A) (from UniProt Q07954 4444-4544) (domain or fragment)
